Laboratory results as given in PubChem BioAssay AID720551 (National Center for Advancing Translational Sciences (NCATS), 2013).
Screen size: about 340,000 compounds; about 1,300 (0.38%) were called active. This list was built around the results that the source calls inconclusive (neither active nor inactive); the mix of calls is not that of the screen.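 The calls were made as follows: active = maximum activity change below -70%; inconclusive = maximum activity change between -70% and -50%; inactive = maximum activity change above -50%.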
% is scaled to controls: 0 for no effect and ±100 for the full control effect.

Chains of the proteins cited; added tags and fusions are not shown.
UniProt Q12809, whole entry, looked up: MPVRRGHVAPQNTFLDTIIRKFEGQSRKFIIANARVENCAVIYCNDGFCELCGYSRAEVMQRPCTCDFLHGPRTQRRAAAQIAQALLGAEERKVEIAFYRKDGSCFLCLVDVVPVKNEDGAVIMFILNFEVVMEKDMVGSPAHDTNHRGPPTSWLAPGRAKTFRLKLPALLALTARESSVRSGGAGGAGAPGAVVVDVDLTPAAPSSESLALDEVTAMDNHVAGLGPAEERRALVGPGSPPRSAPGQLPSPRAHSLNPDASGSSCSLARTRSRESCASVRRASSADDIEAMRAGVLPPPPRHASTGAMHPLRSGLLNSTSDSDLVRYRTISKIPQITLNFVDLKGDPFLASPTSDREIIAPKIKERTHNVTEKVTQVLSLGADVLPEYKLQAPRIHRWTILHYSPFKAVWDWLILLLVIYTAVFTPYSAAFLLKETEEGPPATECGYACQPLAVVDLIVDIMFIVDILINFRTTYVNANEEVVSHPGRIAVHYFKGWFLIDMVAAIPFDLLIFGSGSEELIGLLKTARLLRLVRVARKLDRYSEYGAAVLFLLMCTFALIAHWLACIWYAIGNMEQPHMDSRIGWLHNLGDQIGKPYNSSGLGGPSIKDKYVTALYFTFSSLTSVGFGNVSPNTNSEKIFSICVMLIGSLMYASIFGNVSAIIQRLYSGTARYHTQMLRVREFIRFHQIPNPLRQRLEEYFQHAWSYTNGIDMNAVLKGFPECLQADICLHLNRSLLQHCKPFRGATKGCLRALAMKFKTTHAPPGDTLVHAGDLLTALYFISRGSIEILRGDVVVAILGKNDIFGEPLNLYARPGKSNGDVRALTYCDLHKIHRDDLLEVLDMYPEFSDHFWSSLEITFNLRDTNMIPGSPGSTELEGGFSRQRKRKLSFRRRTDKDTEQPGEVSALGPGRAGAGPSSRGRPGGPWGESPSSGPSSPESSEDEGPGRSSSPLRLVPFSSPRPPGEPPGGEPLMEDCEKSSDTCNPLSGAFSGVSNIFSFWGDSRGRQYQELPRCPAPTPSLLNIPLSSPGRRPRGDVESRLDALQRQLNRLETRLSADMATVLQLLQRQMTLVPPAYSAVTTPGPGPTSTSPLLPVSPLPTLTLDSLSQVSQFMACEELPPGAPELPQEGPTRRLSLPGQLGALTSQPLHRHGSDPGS

Each molecule was assayed against Voltage-gated inwardly rectifying potassium channel KCNH2 (Homo sapiens) (UniProt Q12809) (assay: qHTS for Inhibitors of KCHN2 3.1: Wildtype qHTS). Settings: U2OS, BacMam KCNH2, thallium flux FluxOr; at 1.84 µM, hits give low values.
Summary of the method: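 U2OS cells were transduced with wild-type KCNH2 virus (2.03 x 10^8 / mL) for 4 h at room temperature, then cultured overnight at 37 C. Thallium flux was read with FluxOr dye. Rate constants were normalized to DMSO controls.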
`OCC1(Cc2ccc(Cl)cc2)CCN(CCCc2ccccc2)CC1` was tested, and the activity change was inconclusive: -61.2%. For `CN1CCN(CCOC2Cc3ccccc3Sc3ccc(Cl)cc32)CC1` (stereo unspecified), the activity change was inconclusive: -69.9%. For `O=c1[nH]cc(S(=O)(=O)N2CCN(c3ccccc3F)CC2)c(=O)[nH]1`, the activity change was inconclusive: -69.3%. For `O=C(Nc1ccc(C(=O)N2CCCc3ccccc32)cc1)c1cccs1`, the activity change was inconclusive: -64.8%. For `CC1CCc2c(sc3[nH]c(=S)n(C)c(=O)c23)C1` (stereo unspecified), the activity change was inconclusive: -50.4%. In the case of `O=C(NC(=S)Nc1ccccc1Br)c1ccco1`, the activity change is reported as inconclusive: -63.7%. With `CCN(CC)CCSc1nc2ccccc2n1Cc1ccccc1` the activity change was inconclusive: -61%. In the case of `CCOc1ccc(-c2nnc(-c3cccs3)o2)cc1OCC`, the activity change is reported as inactive: -2.86%. In the case of `O=C(CN1CCN(c2ccc(O)cc2)CC1)Nc1cc([N+](=O)[O-])ccc1Cl`, the activity change is reported as inactive: 15.6%. In the case of `Cc1cc(NC(=O)CSc2nc(-c3cccs3)cc(C(F)(F)F)n2)no1`, the activity change is reported as inconclusive: -58.8%. With `CCCCNc1c(-c2ccc(SC3CCCCC3)cc2)nc2ccccn12` the activity change was inconclusive: -56.4%. For `c1ccc2c(c1)Cn1c-2nc2ccccc21`, the activity change was inactive: -17.1%. In the case of `CN(C)c1ccc(/C=C/C(=O)c2ccc(O)cc2)cc1`, the activity change is reported as inconclusive: -62.3%. In the case of `CC1Cc2ccccc2N1C(=O)CN1CCC(n2nnc3cc(C(F)(F)F)ccc32)CC1` (stereo unspecified), the activity change is reported as inconclusive: -54.6%. `CCCn1c(N)c(N(CCOC)C(=O)COC(=O)COc2c(C)cc(C)cc2C)c(=O)[nH]c1=O` was tested, and the activity change was inconclusive: -64.2%. With `Cc1cc(C)c(CN2CCCC(CNC(=O)c3ccc(F)cc3)C2)c(-n2cccn2)c1` (stereo unspecified) the activity change was active: -85.2%. With `O=C(NCCCN1CCOCC1)c1ccccc1N1C(=O)[C@@H]2Cc3c([nH]c4ccccc34)C(c3cccc(Cl)c3)N2C1=O` (stereo partly specified) the activity change was inconclusive: -51.5%. With `CC1CCCCC12NC(=O)N(CC(=O)Nc1ccc3c(c1)OCO3)C2=O` (stereo unspecified) the activity change was inconclusive: -61.7%. `Cc1nn(-c2ccccc2)nc1C(=O)Oc1cc(C(F)(F)F)nn1-c1ccccc1` was tested, and the activity change was inconclusive: -50.7%. `COc1ccc(-c2cc3onc(-c4c(Cl)cccc4Cl)c3c(=O)n2C)cc1` was tested, and the activity change was inconclusive: -51.4%. `O=C(O)COCC(=O)N1CCCN(c2nccc(C(F)(F)F)n2)CC1` was tested, and the activity change was inconclusive: -53.9%. With `CC(NC(=O)C(=O)N1CCCCC1)C(c1cccs1)N1CCN(Cc2ccccc2)CC1` (stereo unspecified) the activity change was inactive: 5.38%. `CCOc1ccc(C(=O)CN2C(=O)NC3(CCCc4ccccc43)C2=O)cc1` (stereo unspecified) was tested, and the activity change was inconclusive: -54.3%. `N#Cc1cccc(Nc2c3c(nc4ccccc24)CCCC3)c1` was tested, and the activity change was inconclusive: -53.8%. With `COc1cc(NC(=O)c2ccc(Cl)cc2)c(Cl)cc1NC(=O)c1cccnc1` the activity change was inconclusive: -64.9%. With `CC(C)Oc1cccc(C(=O)C2CCCN(Cc3cccn3-c3ccccn3)C2)c1` (stereo unspecified) the activity change was inconclusive: -67.7%. `CC(O)CN(CC(C)O)c1ccc2c(c1)Cc1cc([N+](=O)[O-])ccc1-2` (stereo unspecified) was tested, and the activity change was inconclusive: -69.9%. In the case of `O=C(NCCc1csc(-c2cccnc2)n1)c1ccc(Br)o1`, the activity change is reported as active: -71.1%. With `COC(=O)CC1C(=O)NCCN1C(=O)c1cc(OC)c(OC)cc1OC` (stereo unspecified) the activity change was inconclusive: -53.2%. `CCCN(C(=O)C1CCCN(c2ncnc3c2nc2n3CCCCC2)C1)c1ccc(F)cc1` (stereo unspecified) was tested, and the activity change was inactive: -11.5%. `CC1=C(C(=O)N(C)C)CC(CC(=O)NCc2cccs2)C(=O)N1CCCN1CCCC1=O` (stereo unspecified) was tested, and the activity change was inconclusive: -58.5%. `C[C@H](CO)N1C[C@H](C)[C@@H](CN(C)Cc2ccncc2)Oc2c(NC(=O)Cc3ccccc3)cccc2C1=O` was tested, and the activity change was inactive: -12.3%. `COC(=O)CNC(c1ccccc1)c1cc(Br)ccc1NC(=O)CCN1CCOCC1` (stereo unspecified) was tested, and the activity change was inactive: -9.12%. In the case of `CCN(CC)c1ccc2cc(C(=O)NNC(=O)c3ccc(S(=O)(=O)N4CCCCC4)cc3)c(=O)oc2c1`, the activity change is reported as inconclusive: -70%. For `CCCCCCN1C[C@H](O)[C@@H](n2cc(C3CC3)nn2)C[C@@H]1c1ccc(OC)cc1`, the activity change was inconclusive: -59.7%. `CC(C)c1ccc(C2CC(c3ccc(Br)cc3)=NN2C(N)=S)cc1` (stereo unspecified) was tested, and the activity change was inconclusive: -57.3%. With `COc1ccc(CCn2c(C)cc(C(=O)COC(=O)c3ccc(O)cc3O)c2C)cc1` the activity change was inconclusive: -64.5%. With `CCOc1ccccc1NC(=S)Nc1ncccc1C` the activity change was inactive: -8.31%. With `Cc1ccc(C(=O)N/C(=C/c2ccc(F)cc2)C(=O)NCc2ccncc2)cc1` the activity change was inconclusive: -63.3%. For `Cc1cc(C(C)(C)C)cc(C)c1C[n+]1ccc2ccccc2c1`, the activity change was inactive: -4.06%. For `O=C(C1=C[C@H](c2ccc(C(F)(F)F)cc2)C[C@H](OCc2ccc(CO)cc2)O1)N1CCCCCCC1`, the activity change was inactive: -0.51%. In the case of `O=C(CCC1CCCCC1)NCCN1C2=NC[C@@H](Cc3ccccc3)N2C[C@H]1Cc1ccc(O)cc1`, the activity change is reported as active: -116%. With `CN(C)CCNC(=O)COc1ccc(C23CC4CC(CC(C4)C2)C3)cc1` the activity change was “inactive”. `COc1ccc(CCCNC(=O)C2CCC(=O)N(CC3CCCCC3)C2)cc1` (stereo unspecified) was tested, and the activity change was active: -173%. In the case of `COCOCCn1cc(CN2CCS(=O)(=O)N(Cc3ccc(-c4ccc(Cl)nc4)cc3)C(C)C2=O)nn1` (stereo unspecified), the activity change is reported as inconclusive: -54%. With `CC(C(=O)NCC1CCCO1)N(C(=O)c1snc(C(N)=O)c1N)c1ccccc1` (stereo unspecified) the activity change was inactive: -4.07%. For `Cc1ccc(C(=O)N/C(=C\c2cccs2)C(=O)NCCCn2ccnc2)cc1`, the activity change was active: -181%. `O=[N+]([O-])c1nn(-c2ccccc2)[n+]([O-])c1N1CCN(c2ccccc2)CC1` was tested, and the activity change was inactive: 1.17%. For `CC(C)C[C@H](NC(=O)c1nc[nH]c1C(=O)NCC(=O)OCc1ccccc1)C(=O)OCc1ccccc1`, the activity change was active: -121%. For `CCOC(=O)N1CCN(CC(=O)Nc2nc3ccc(OC)cc3s2)CC1`, the activity change was inactive: 2.9%. `CCN1CCN(c2ccc(NC(=O)c3cccc(OCc4ccccc4)c3)cc2)CC1` was tested, and the activity change was inconclusive: -57.2%. With `COc1cccc(C(c2c(NC(=O)c3ccco3)sc(C)c2C)N2CCOCC2)c1` (stereo unspecified) the activity change was inconclusive: -62.7%. With `O=C(NCCN1CCN(Cc2ccccc2)CC1)Nc1cc(Cl)cc(Cl)c1` the activity change was inconclusive: -59.2%. With `Clc1ccc(CN2C3=NCCCN3c3ccccc32)cc1Cl` the activity change was active: -84.7%. `COCC(=O)N(Cc1cc2cc(OC)ccc2[nH]c1=O)c1ccccc1OC` was tested, and the activity change was inactive: 0.0766%. In the case of `Cc1ccc(NC(=S)NNC(=O)c2ccccc2O)c(C)c1`, the activity change is reported as inconclusive: -58.4%. For `Nc1nc2nccc(-c3ccc(Cl)cc3)n2n1`, the activity change was inactive: -6.54%. `COc1ccccc1CNC(=O)c1cnccn1` was tested, and the activity change was inconclusive: -55.6%. With `NC(=O)C1CCN(C2=C(Cl)C(=O)c3ccccc3C2=O)CC1` the activity change was inactive: -15.6%. For `N#Cc1c(N2CCN(c3ccc([N+](=O)[O-])cc3)CC2)[n+](=O)c2ccc(Cl)cc2n1[O-]`, the activity change was inconclusive: -50.3%. For `CC1=CC(C)(C)C(C(=O)O)C(C(=O)O)C1` (stereo unspecified), the activity change was active: -109%. In the case of `CCCCC1(C(=O)OC)NC(c2ccc(O)cc2)C2C(=O)N(c3ccccc3)C(=O)C21` (stereo unspecified), the activity change is reported as inconclusive: -68.1%. With `Cc1cc(=O)[nH]c(SCC(=O)NCC2CCCO2)n1` (stereo unspecified) the activity change was active: -235%. In the case of `COc1ccc(N2CCN(CC(O)COC(c3ccccc3)c3ccccc3)CC2)cc1` (stereo unspecified), the activity change is reported as inconclusive: -50.8%. `CCOc1ccc(CN2CCN(CCCn3cccn3)CC2CCO)cc1` (stereo unspecified) was tested, and the activity change was inactive: -25.5%. `COc1ccc(CCN2C(=O)NC(NS(=O)(=O)c3ccc(NC(C)=O)cc3)(C(F)(F)F)C2=O)cc1OC` (stereo unspecified) was tested, and the activity change was inconclusive: -68.4%. `N#CC(C#N)=C1C=C2C=C(N3CCCCC3)CCC2CC1` (stereo unspecified) was tested, and the activity change was inconclusive: -65.1%. For `CCOc1ccc(CCNC(=O)/C=C/c2ccco2)cc1OCC`, the activity change was inconclusive: -51.6%. In the case of `C/C(=N/N1CCN(c2ccccn2)CC1)c1ccc([N+](=O)[O-])cc1`, the activity change is reported as inconclusive: -55%. In the case of `COc1cccc(C(c2nnnn2CCc2ccccc2)N2CCN(c3ccccc3)CC2)c1OC` (stereo unspecified), the activity change is reported as inactive: 3.08%. With `CS(=O)(=O)N1N=C(c2ccc(Br)cc2)CC1c1ccc2c(c1)OCO2` (stereo unspecified) the activity change was inactive: 36.6%. In the case of `Cc1ccc(C(=O)Nc2ccccn2)cc1S(=O)(=O)N1CCOCC1`, the activity change is reported as inactive: 7.68%. With `COc1ccc(NC(=O)Nc2cccc3ccccc23)cc1S(N)(=O)=O` the activity change was inconclusive: -63.5%. `O=C(O)CCCNC(=O)Cc1ccccc1` was tested, and the activity change was inconclusive: -56.6%. With `CC(NC(=O)NC(=O)c1ccc(Cl)cc1)c1ccccc1` (stereo unspecified) the activity change was inconclusive: -56.4%. In the case of `Cc1ccc(C(=O)N/C(=C\c2ccc(-c3ccc(Br)cc3)o2)C(=O)NCCCN(C)C)cc1`, the activity change is reported as active: -80.3%. With `CCCNC(=O)c1ccc(N2CCC3(CC2)CC(c2cccc(Br)c2)=NO3)c(NC(=O)c2ccco2)c1` the activity change was inconclusive: -58.7%. With `CCCNC(=O)C1CC(c2cccc(F)c2)=NO1` (stereo unspecified) the activity change was inconclusive: -51%. In the case of `COCCCNCCC(CCC(C)C)c1ccc2c(c1)OCO2` (stereo unspecified), the activity change is reported as inconclusive: -67.7%. With `O=C(Cc1ccccc1)NC1(Cc2ccc(O)cc2)CCCCC1` the activity change was inconclusive: -60.4%. `CCOC(=O)c1c2c(n(Cc3ccccc3)c1C)C(=O)C(=O)c1ccccc1-2` was tested, and the activity change was inconclusive: -60.1%. `O=C(C1CCC(=O)N(C2CCCC2)C1)N1CCN(Cc2cccc(Cl)c2)CC1` (stereo unspecified) was tested, and the activity change was inactive: -3.31%. With `O=C(Nc1cccc(-n2cnnn2)c1)c1cc2ccccc2o1` the activity change was inconclusive: -61.2%. For `CC(C)(C)Cc1c(-c2ccc(F)cc2)nc2ccc(Br)cn12`, the activity change was inactive: 7.28%. In the case of `NC(=O)c1c(NC(=O)c2ccccc2F)sc2c1CCC2`, the activity change is reported as inconclusive: -55.6%. For `COc1cc(C(CCN2CCCC2)c2c(OC)cc(OC)c3c(-c4ccccc4)cc(=O)oc23)cc(OC)c1OC` (stereo unspecified), the activity change was inconclusive: -58.2%.
